In the supplement of paper PMC10689618:
This is one part of the list. Repeats are few or missing, and single values can be far off.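 Primary human fetal astrocytes engulfed labelled rat cortical synaptosomes, measured as a red/green ratio corrected for calcein live-cell signal and scaled to the plate median. Toxicity meant calcein falling over 30%; decreased phagocytosis meant below 70% of median above 5 µM.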

Assays:
Human fetal astrocytes [1] = assay: loss of total cells relative to no-compound high-control median (toxicity); higher = more toxic (fewer cells); settings: 24 h
Human fetal astrocytes [2] = assay: synaptosome phagocytosis (pHrodo/calcein intensity ratio) relative to plate median of data wells; higher = more phagocytosis; settings: 24 h

Structure (SMILES) | loss of total cells (Human fetal astrocytes [1]; 1.39 µM) [%] | loss of total cells (Human fetal astrocytes [1]; 2.78 µM) [%] | loss of total cells (Human fetal astrocytes [1]; 5.56 µM) [%] | loss of total cells (Human fetal astrocytes [1]; 11.11 µM) [%] | loss of total cells (Human fetal astrocytes [1]; 22.22 µM) [%] | synaptosome phagocytosis (Human fetal astrocytes [2]; 1.39 µM) [%] | synaptosome phagocytosis (Human fetal astrocytes [2]; 2.78 µM) [%] | synaptosome phagocytosis (Human fetal astrocytes [2]; 5.56 µM) [%] | synaptosome phagocytosis (Human fetal astrocytes [2]; 11.11 µM) [%] | synaptosome phagocytosis (Human fetal astrocytes [2]; 22.22 µM) [%]
OC[C@H]1O[C@H](OCC2O[C@@H](O)[C@H](O)[C@@H](O)[C@@H]2O)[C@H](O)[C@@H](O)[C@H]1O (stereo not given in full) | -1.1 | -8.3 | 3.6 | 0.4 | -10.6 | 110 | 68.6 | 86.3 | 97.6 | 46.1
C=CC[S+]([O-])C[C@H](N)C(=O)O (mixture of isomers) | -9 | -6.1 | -2.9 | 8.8 | 14.1 | 120 | 108 | 137 | 96.1 | 80.3
C[C@@](Cc1ccc(O)c(O)c1)(NN)C(=O)O | 13.7 | -21.4 | 6.2 | 12.8 | 5.3 | 148 | 120 | 119 | 115 | 94.7
CC(=O)O[C@@H]1CC2C(C)(C)[C@H](O)C=C[C@]2(C)C2CC[C@@]3(C)[C@H](c4ccoc4)OC(=O)C4OC43[C@@]21C (stereo not given in full) | 9 | 17 | 15.2 | 16.3 | 22.7 | 83.1 | 111 | 156 | 111 | 111
CN(C)CCc1c[nH]c2ccc(Cn3cncn3)cc12 | -46 | -40.5 | -12.4 | -11.5 | -5.3 | 71.6 | 89 | 114 | 93.8 | 126
Cc1ccsc1/C=C/C1=NCCCN1C | -41.9 | 22.2 | -1.2 | 44.9 | -2.2 | 66.6 | 158 | 69.6 | 125 | 66.9
C[C@H]1O[C@@H](O[C@H]2[C@@H](O)C[C@H](O[C@H]3[C@@H](O)C[C@H](O[C@H]4CC[C@@]5(C)[C@H](CC[C@@H]6[C@@H]5C[C@@H](O)[C@]5(C)[C@@H](C7=CC(=O)OC7)CC[C@]65O)C4)O[C@@H]3C)O[C@@H]2C)C[C@H](O)[C@@H]1O | 36.5 | 24.7 | 30 | 48.7 | 42.2 | 55.8 | 55 | 46.7 | 52 | 44.4
CCCCN1CCCCC1C(=O)Nc1c(C)cccc1C (stereo not given) | -45.2 | -15.9 | 4.3 | -6.2 | -7.2 | 24.2 | 97.4 | 85.4 | 77.6 | 62.3
C=C[C@H]1CN2CC[C@H]1C[C@H]2[C@H](O)c1ccnc2ccc(OC)cc12 | -0.3 | -13.9 | -2.8 | -10.1 | -13.1 | 82.5 | 93.2 | 99.8 | 93.9 | 96.9
CC(=O)Oc1cccc2c1C(=O)c1c(OC(C)=O)cc(C(=O)O)cc1C2=O | 10.5 | 1.8 | 23.2 | 6.3 | 2.3 | 118 | 119 | 131 | 104 | 95.6
O=C(O)Cc1cc(I)c(Oc2cc(I)c(O)c(I)c2)c(I)c1 | 13.4 | 2.5 | 15.9 | 25.5 | 6.8 | 114 | 123 | 102 | 150 | 120
COc1cc2c3cc1Oc1cc(ccc1O)C[C@@H]1c4c(cc(OC)c(O)c4Oc4ccc(cc4)C[C@@H]3N(C)CC2)CC[N+]1(C)C | 25 | -1.3 | -7.6 | 34.2 | -7.8 | 100 | 72.7 | 57 | 131 | 97.3
O=c1ccc2ccccc2o1 | -14.1 | 0.3 | 0.9 | -8.6 | 18.7 | 111 | 71.4 | 107 | 120 | 112
CC(C)/N=c1\cc2n(-c3ccc(Cl)cc3)c3ccccc3nc-2cc1Nc1ccc(Cl)cc1 | -14.1 | -12 | -19.1 | -25.2 | 7 | 83.3 | 75.1 | 60.2 | 56.4 | 51.2
COc1cc2c(cc1OC)[C@@H]1C(=O)c3ccc4c(c3O[C@@H]1CO2)C=CC(C)(C)O4 | 32.2 | 27.9 | 18.3 | 46.5 | 44.8 | 71.2 | 67 | 65.1 | 63 | 59.9
N[C@@H](Cc1c[nH]c2ccccc12)C(=O)O | 13.9 | 1.7 | -12.5 | -14.7 | 16.1 | 90 | 82 | 103 | 114 | 105
CC(COc1ccccc1)NC(C)C(O)c1ccc(O)cc1 (stereo not given) | -6.8 | -9.2 | -12.5 | 2.6 | -14.3 | 99.5 | 99.8 | 111 | 72.4 | 73.7
CCCCCCCCCCC[C@@H](C[C@@H]1OC(=O)[C@H]1CCCCCC)OC(=O)[C@H](CC(C)C)NC=O | -21 | -38.1 | 0.6 | 14.8 | -0.3 | 126 | 108 | 133 | 120 | 130
Oc1cc(O)c2c(c1)O[C@H](c1cc(O)c(O)c(O)c1)[C@H](O)C2 | -4.7 | 2.7 | -29.8 | 12.3 | 27.8 | 106 | 109 | 79.3 | 81.7 | 107
CC(C)Nc1ncccn1 | 42.2 | 8.3 | 2.2 | -3.8 | 0.8 | 65.7 | 135 | 75.4 | 99.7 | 130

Structure (SMILES) | loss of total cells (Human fetal astrocytes [1]; 1.39 µM) [%] | loss of total cells (Human fetal astrocytes [1]; 2.78 µM) [%] | loss of total cells (Human fetal astrocytes [1]; 5.56 µM) [%] | loss of total cells (Human fetal astrocytes [1]; 11.11 µM) [%] | loss of total cells (Human fetal astrocytes [1]; 22.22 µM) [%] | synaptosome phagocytosis (Human fetal astrocytes [2]; 1.39 µM) [%] | synaptosome phagocytosis (Human fetal astrocytes [2]; 2.78 µM) [%] | synaptosome phagocytosis (Human fetal astrocytes [2]; 5.56 µM) [%] | synaptosome phagocytosis (Human fetal astrocytes [2]; 11.11 µM) [%] | synaptosome phagocytosis (Human fetal astrocytes [2]; 22.22 µM) [%]
CN(CCOc1ccc(CC2SC(=O)NC2=O)cc1)c1ccccn1 (stereo not given) | -5.8 | -8.2 | 15.9 | -18 | 8.5 | 90.7 | 111 | 104 | 122 | 110
O=C(OCc1ccccc1)c1ccccc1 | -32.3 | -40.5 | 5 | -6.2 | -2.2 | 112 | 82 | 120 | 98.2 | 86.8
COc1ccc(-c2cc(=O)c3c(O)cc(O[C@@H]4O[C@H](CO[C@@H]5O[C@@H](C)[C@H](O)[C@@H](O)[C@H]5O)[C@@H](O)[C@H](O)[C@H]4O)cc3o2)cc1O | 10.5 | 6.9 | 16.7 | 13.8 | -16.7 | 76.5 | 99.4 | 103 | 132 | 110
O=c1c(O)cccc2cc(O)c(O)c(O)c12 | 9.7 | 9.7 | 15.2 | 10.5 | 32.6 | 87.5 | 90.3 | 91.9 | 83.1 | 105
CC(C)(C)NC[C@H](O)c1ccc(O)c(CO)c1 | 3.3 | -11.3 | -33.3 | -2.3 | -7.9 | 93.5 | 84.9 | 84.5 | 70.6 | 82.3
CC(=O)c1c(O)cc(O)cc1O | 2.5 | 12.6 | 20.3 | 7.9 | 28.8 | 107 | 81.6 | 138 | 114 | 109
COc1cc(C(=O)O)cc(OC)c1O | 2.5 | 4 | -10.1 | -24.7 | 5.3 | 101 | 107 | 71.3 | 60.9 | 94.7
COc1ccc([C@@H](C)C(=O)c2ccc(O)cc2O)cc1 | 12.7 | 10.6 | -24.4 | 45.2 | -18.1 | 109 | 98.9 | 76.3 | 114 | 71.4
CCN(CC)Cc1cc(Nc2ccnc3cc(Cl)ccc23)ccc1O | 5.8 | -22.3 | 11.7 | 3.1 | 24.4 | 85.3 | 79.6 | 87 | 86.2 | 76.1
O=C(CCc1ccc(O)cc1)c1c(O)cc(O)cc1O[C@@H]1OC(CO)[C@@H](O)[C@@H](O)C1O (stereo not given in full) | 20.6 | 18.4 | 16.7 | 1.3 | 22 | 89 | 125 | 103 | 96.2 | 87.2
CN1CCC[C@@H]1Cc1c[nH]c2ccc(CCS(=O)(=O)c3ccccc3)cc12 | -2.5 | -15.9 | 29 | 8.4 | 19.6 | 71.7 | 63 | 98.1 | 92.9 | 136
O=C(O)P(=O)(O)O | 26.6 | -36.5 | 18 | 31.1 | -4 | 136 | 88.1 | 114 | 112 | 90.2
CC1=C2C(O)C(=O)OC3CC4C(C)(C)C(=O)C=C[C@]4(C)C(CC1)[C@]23C (stereo not given in full) | -12 | 5.3 | 30.5 | 40.6 | 4.1 | 73.4 | 61.8 | 143 | 123 | 136
c1ccc2c(CC3=NCCN3)cccc2c1 | -59.8 | -25.3 | -4.5 | -19.5 | 1.1 | 108 | 108 | 101 | 83.9 | 97.9
NC(=O)NCCC[C@H](N)C(=O)O | -2.5 | -8.3 | 2.2 | 15.5 | 0 | 105 | 97 | 113 | 95.4 | 120
CCCCC(=O)N(Cc1ccc(-c2ccccc2-c2nnn[nH]2)cc1)[C@H](C(=O)O)C(C)C | 5 | 17.4 | 20.7 | -4.7 | 18.7 | 92.1 | 96.5 | 128 | 95.3 | 114
CC(c1cc2ccccc2s1)N(O)C(N)=O (stereo not given) | 1.1 | 4.7 | 33.6 | 29.7 | -0.4 | 87.8 | 74.4 | 123 | 107 | 90.5
CC(=O)OC1CC[C@@]2(C)C(CC[C@H]3[C@@H]4CC=C(C(C)=O)[C@@]4(C)C(=O)C[C@@H]32)C1 (stereo not given in full) | -19.9 | -5.3 | 31.3 | -1.3 | 41.1 | 94 | 109 | 132 | 84.1 | 146
O=c1oc2ccccc2c(O)c1Cc1c(O)c2ccccc2oc1=O | 8.6 | -20 | -9.8 | 7.8 | -6.4 | 115 | 93.3 | 117 | 82.6 | 92.4

Record cards, as listed above. Order of values: loss of total cells (Human fetal astrocytes [1]; 1.39 µM) [%] | loss of total cells (Human fetal astrocytes [1]; 2.78 µM) [%] | loss of total cells (Human fetal astrocytes [1]; 5.56 µM) [%] | loss of total cells (Human fetal astrocytes [1]; 11.11 µM) [%] | loss of total cells (Human fetal astrocytes [1]; 22.22 µM) [%] | synaptosome phagocytosis (Human fetal astrocytes [2]; 1.39 µM) [%] | synaptosome phagocytosis (Human fetal astrocytes [2]; 2.78 µM) [%] | synaptosome phagocytosis (Human fetal astrocytes [2]; 5.56 µM) [%] | synaptosome phagocytosis (Human fetal astrocytes [2]; 11.11 µM) [%] | synaptosome phagocytosis (Human fetal astrocytes [2]; 22.22 µM) [%]
`NC(=O)NCCC[C@H](N)C(=O)O` is entered as -2.5 | -8.3 | 2.2 | 15.5 | 0 | 105 | 97 | 113 | 95.4 | 120
`CC1=C2C(O)C(=O)OC3CC4C(C)(C)C(=O)C=C[C@]4(C)C(CC1)[C@]23C` (stereo not given in full) is entered as -12 | 5.3 | 30.5 | 40.6 | 4.1 | 73.4 | 61.8 | 143 | 123 | 136
